Test results taken from patent US20240344013A1, “METABOLOMIC ANALYSIS” (Genentech, Inc., priority 2021, published 2024).

System: CHO cell fed-batch cultures
Test: LC-HRMS relative quantification (peak area) of metabolites in N-1 CHO cell culture
Parameters: species or system Chinese hamster

SMILES	LC-HRMS peak area (Day 2, N-1 stage)	LC-HRMS peak area (Day 4, N-1 stage)	LC-HRMS peak area (Day 7, N-1 stage)
O=C(O)C(O)Cc1ccc(O)cc1 (stereo not drawn) [4-Hydroxyphenyllactic acid, 4-hydroxyphenyllactic acid]	2.4E+05	1.3E+06	2.1E+06
O=C(O)C(O)Cc1ccccc1 (stereo not drawn) [Phenyllactic acid, phenyllactic acid]	3.9E+05	3.0E+06	5.1E+06
